# Data taken from paper PMC7819943, “Rice protein-binding microarrays: a tool to detect cis-acting elements near promoter regions in rice”.
# Chains of the proteins cited; added tags and fusions are not shown.
# UniProt Q0JBA9, entry or part of it: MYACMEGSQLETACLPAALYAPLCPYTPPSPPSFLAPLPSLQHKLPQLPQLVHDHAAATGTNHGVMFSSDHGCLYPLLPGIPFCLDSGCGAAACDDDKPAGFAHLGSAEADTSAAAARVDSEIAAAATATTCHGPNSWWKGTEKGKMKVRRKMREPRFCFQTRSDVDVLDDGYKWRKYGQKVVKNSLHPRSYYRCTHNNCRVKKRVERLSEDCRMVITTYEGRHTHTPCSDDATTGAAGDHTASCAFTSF
# Some of the results follow.
# Molecular target: OsWRKY34 (Oryza sativa, UniProt Q0JBA9 1-250)
# Assay: protein-binding microarray (RPBM); PBS, 2% BSA, 51.3 ng/ul salmon testes DNA, 50 uM zinc acetate, 200 nM TF, 25 C, 1 h; high values mean tight binding
# Settings: protein: recombinant; tags: N-terminal polyhistidine and DsRed monomer fusion (pET32a); label: CyDye5-dUTP incorporated in the synthesized complementary strand; 3' TTTTT single-stranded linker to array surface; dsDNA, one strand shown
# Procedure, shortened: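 An Axon 4000B scanner gave the binding signal as per-feature fluorescence intensity in arbitrary units. This followed washing of a custom Agilent array that had been incubated for 1 h at 25 °C with 200 nM protein in PBS, 2% BSA, salmon testes DNA and 50 µM zinc acetate. The proteins were transcription factors fused at the N-terminus to polyhistidine and DsRed, expressed in E. coli BL21-CodonPlus and purified on Ni–NTA.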
row,Sequence,binding signal
1,CCTCCCATTGCTTCACATTTCTTCCTTCCCTTTTGCCTCCCGGAGTCACCTAGTGCAG,9580 fluorescence intensity (a.u.)
2,GCTTCGTGGCCCTCGATCTGTGCTGTGCCCGCGCTGTCCACGGAGTCACCTAGTGCAG,8090 fluorescence intensity (a.u.)
3,TATAAGTGTCGATTTTTCTTTAGAACCAACACCTATAGTTCGGAGTCACCTAGTGCAG,8240 fluorescence intensity (a.u.)
4,TCTTCGTTGCTGCCTATCGTTCTTGTGTGTCCTAAAAAATCGGAGTCACCTAGTGCAG,14100 fluorescence intensity (a.u.)
5,GGAAGCCATTTCACGTTCGAATCTTATGTCAGCCAGCTTACGGAGTCACCTAGTGCAG,8650 fluorescence intensity (a.u.)
6,CTCGGTCTCGCCACGCTTCTGCCCATCCACAGCTGTCCCCCGGAGTCACCTAGTGCAG,9070 fluorescence intensity (a.u.)
7,TTTTTGCTTGTGTTGATGTGTTAAAGTATTAAGTGATTTTCGGAGTCACCTAGTGCAG,10400 fluorescence intensity (a.u.)
8,TTATTTTTGTTTAATTACCATTATTAGCAATTAATTAACACGGAGTCACCTAGTGCAG,8260 fluorescence intensity (a.u.)
9,CCATGTTCGGAACTATAAATTCTCACTTTTACTCGCATGTCGGAGTCACCTAGTGCAG,8880 fluorescence intensity (a.u.)
10,CACCTCGCATCGTCGCCGTCACCGTCGCCGACGACCAGACCGGAGTCACCTAGTGCAG,8170 fluorescence intensity (a.u.)
11,AGGCTGTTATTGGTTGAAGTTGGGTGATAGATTTGGAACTCGGAGTCACCTAGTGCAG,9060 fluorescence intensity (a.u.)
12,CCCCTTCCGACATCTGGTCAAACTTTCGATGTGACACCCACGGAGTCACCTAGTGCAG,8260 fluorescence intensity (a.u.)
13,TTTGCTGGTATTTGGTCATCACAGGTTAACCACATCAAAACGGAGTCACCTAGTGCAG,8390 fluorescence intensity (a.u.)
14,TTGGCTTCTTCAACTTACGTTACCCAATGCATTATATTTGCGGAGTCACCTAGTGCAG,8070 fluorescence intensity (a.u.)
15,TTTTGGACGATGCAATTTCTGTTACTATGGTTGTGGGCCTCGGAGTCACCTAGTGCAG,8440 fluorescence intensity (a.u.)
16,CTCCTCGCCGACGACGGCTTTCCCCTCACGCTCTCCCGTACGGAGTCACCTAGTGCAG,8080 fluorescence intensity (a.u.)
17,TTGTCTCCCATGCCTATGTCATCCATACAACGTTACTTCACGGAGTCACCTAGTGCAG,9210 fluorescence intensity (a.u.)
18,TCTTTGTGTTCTAGTGTTAGGTTGGTAGCCAAGAGGGGTTCGGAGTCACCTAGTGCAG,11500 fluorescence intensity (a.u.)
19,ACGGTCAGTGTTGCTGCAGAGTTTTTTTTCCGTTGGATTCCGGAGTCACCTAGTGCAG,10300 fluorescence intensity (a.u.)
20,TGACTGTATAAACTATTCATGTCTTTTGTTCATTAGCTTCCGGAGTCACCTAGTGCAG,8120 fluorescence intensity (a.u.)
21,CGGCGGAGGAGGAGGTTTCTTGCTCGTTTCTTGGGTTGCGCGGAGTCACCTAGTGCAG,10800 fluorescence intensity (a.u.)

row,Sequence,binding signal
1,GTGCGCTCGCCTTATATATACCGTACCATGGCAAATCGTGCGGAGTCACCTAGTGCAG,8180 fluorescence intensity (a.u.)
2,AAGTGGTGTGTAAGTATGATGTGTATAAATTCGTATGAATCGGAGTCACCTAGTGCAG,9650 fluorescence intensity (a.u.)
3,GCCCATATTTTAAAAATAATTTATACTCCTACTTTATATTCGGAGTCACCTAGTGCAG,9260 fluorescence intensity (a.u.)
4,CTTAGTATTTACCAACATTTTCTCTATTTGTACAGTTTTCCGGAGTCACCTAGTGCAG,10800 fluorescence intensity (a.u.)
5,TGTGAGTGAGTTTTGTTCTTTTTCGCGCGCACGCTTCCCGCGGAGTCACCTAGTGCAG,10500 fluorescence intensity (a.u.)
6,GAGGAGGAACGTTGTGTTGATTTATGCTAGTGTGTTGTGTCGGAGTCACCTAGTGCAG,8650 fluorescence intensity (a.u.)
7,GGATGTTCACTTTTAACCGTATCAAATTTTAGTAGGTAACCGGAGTCACCTAGTGCAG,8190 fluorescence intensity (a.u.)
8,CTGCTCTAACTGAAGTGCCAGGTGACTTGCTTGGTTGGTTCGGAGTCACCTAGTGCAG,18300 fluorescence intensity (a.u.)
9,ACCTGTATGTTCTTTTTTTGTACTAGTGATTCATTTTTTTCGGAGTCACCTAGTGCAG,9850 fluorescence intensity (a.u.)
10,ACGACTCCGCATCCGCTTCCGCCGCAGTCCGCCGCACCCGCGGAGTCACCTAGTGCAG,10100 fluorescence intensity (a.u.)
11,CATGTCATTTGGCGTTAATTATACCTACCACACATGCAGCCGGAGTCACCTAGTGCAG,8820 fluorescence intensity (a.u.)
12,CCGGCGCCACCACCACCGTCTCGCACTCGTAATCGTACGCCGGAGTCACCTAGTGCAG,11000 fluorescence intensity (a.u.)
13,CCATTTCCCGTTCACACCCTCCGTTTTTCCATTACAAAGGCGGAGTCACCTAGTGCAG,8280 fluorescence intensity (a.u.)
14,CTGCACTGTTTGCCTCAGTTGGGTTGGTTTGGTTTGGTTGCGGAGTCACCTAGTGCAG,48200 fluorescence intensity (a.u.)
15,ACCGCCGCCGCACTCCACCGCGGCCTACCCTTGCCGGCGCCGGAGTCACCTAGTGCAG,10500 fluorescence intensity (a.u.)
16,GTCTGCAATTGTTTTCTTTTGTCATGACCAGACAGCAAAACGGAGTCACCTAGTGCAG,8210 fluorescence intensity (a.u.)
17,TTCCCTTTAATCGCGCGTCGCACCACCCGCTCCCCAACAACGGAGTCACCTAGTGCAG,8100 fluorescence intensity (a.u.)
18,CCAGCCAAAGTTCTCTATCAGTGCCCTTAAGTTATAGCATCGGAGTCACCTAGTGCAG,9190 fluorescence intensity (a.u.)
19,ATCTTTTTTGTTTGACTGATATATGGCTCCGCATATTATGCGGAGTCACCTAGTGCAG,8160 fluorescence intensity (a.u.)
20,TCTATGCCCTTGTTTAGTCCTCAACTTTTTTTTTCAAACTCGGAGTCACCTAGTGCAG,8710 fluorescence intensity (a.u.)
21,TGTATCATAATTACATACGACCACCTATACATTTGTCGACCGGAGTCACCTAGTGCAG,8830 fluorescence intensity (a.u.)

row,Sequence,binding signal
1,TCCACATCTAGATTTTTATTTTTTGCGCAGAGCCATGTATCGGAGTCACCTAGTGCAG,9080 fluorescence intensity (a.u.)
2,TTTTGTTGTTGATCCTGACACGCCGTTGCTTTGCTTCAGGCGGAGTCACCTAGTGCAG,8250 fluorescence intensity (a.u.)
3,CTCGCTCTCGCCCTCAGGTGCCCGTCGTTCGGATCCGCCACGGAGTCACCTAGTGCAG,8780 fluorescence intensity (a.u.)
4,TGCCATCCTGATCCAGTTTGATTTCTCCGTCGAGCAGCAACGGAGTCACCTAGTGCAG,8380 fluorescence intensity (a.u.)
5,GCTGTTGACGTACATGTCGTCATATACGCATGTCCTCGTTCGGAGTCACCTAGTGCAG,11400 fluorescence intensity (a.u.)
6,CGTTTAAGATGTGAACATTATTTTGGGGTTTATGGCACTCCGGAGTCACCTAGTGCAG,8950 fluorescence intensity (a.u.)
7,TGTTTTGCACCTCTAATAAAGCATTTTCTTAACTTTTCTTCGGAGTCACCTAGTGCAG,8120 fluorescence intensity (a.u.)
8,CAATCCATCAAACATGCAGTCAAGGTGTATTATTCAGTATCGGAGTCACCTAGTGCAG,9880 fluorescence intensity (a.u.)
9,TGTATTGTTATTTACGATTCCTTTTTTTCCCTTGCAGCTACGGAGTCACCTAGTGCAG,8230 fluorescence intensity (a.u.)
10,ACTGCCGGTCCTCACACACGACACACCTAAACAGATCAACCGGAGTCACCTAGTGCAG,8370 fluorescence intensity (a.u.)
11,CCCACTAAAACCCCACTTACGCGCACAAACAAAGCCGAATCGGAGTCACCTAGTGCAG,8770 fluorescence intensity (a.u.)
12,GTTCACAAATACTCCAAATCGTTTGGCCCACTTATATTCCCGGAGTCACCTAGTGCAG,8740 fluorescence intensity (a.u.)
13,GTCTATCTCTGTCTCTCTCTCTCACACAAACACTACGATACGGAGTCACCTAGTGCAG,8200 fluorescence intensity (a.u.)
14,TTTGGCCTTGCGGTTTGTTCGTTGATTTGGTTCCACGCATCGGAGTCACCTAGTGCAG,13000 fluorescence intensity (a.u.)
15,CCCCGCAACAGCCGCGATCCATGCCCGCGCGGTGATTTCCCGGAGTCACCTAGTGCAG,8050 fluorescence intensity (a.u.)
16,CGTGTCTTCTGTGTTTGATCTATTGTTATTTATCGTTTGTCGGAGTCACCTAGTGCAG,14000 fluorescence intensity (a.u.)
17,CGCCTCGCATCTGTTTGGCTTCCACGCCACTGCTCTGCAACGGAGTCACCTAGTGCAG,8160 fluorescence intensity (a.u.)
18,TAATGATCCCATAATTAGCACTGCCAATTCGTACGCTTGCCGGAGTCACCTAGTGCAG,8200 fluorescence intensity (a.u.)
19,CTGCTACATGTGGCCGGTCGGTTGCAATGGTTGTAATTATCGGAGTCACCTAGTGCAG,8230 fluorescence intensity (a.u.)
20,CAGACGTTCACCATCTTCCGCGTCCCCGCCTTTCTTCGCGCGGAGTCACCTAGTGCAG,9290 fluorescence intensity (a.u.)
21,TTAGTGGGGTTATTTAGCTTTTTTTTTAAGAAGTCTGCTTCGGAGTCACCTAGTGCAG,9750 fluorescence intensity (a.u.)

row,Sequence,binding signal
1,CTCTCTAACTGCAGATTTCCCTCCCCTTTCAACGCGCGCGCGGAGTCACCTAGTGCAG,8110 fluorescence intensity (a.u.)
2,CTCCATATATTCGTTACCAGACTGTCACTGTTTCATGTCACGGAGTCACCTAGTGCAG,9720 fluorescence intensity (a.u.)
3,TCATCGCGGGGCGGGGTGTAGCGGGTGCGAAAAGGAGGCGCGGAGTCACCTAGTGCAG,9910 fluorescence intensity (a.u.)
4,AAAATGCCCTTGTTACTTATTTGTGAACTTTGTTAAATACCGGAGTCACCTAGTGCAG,9430 fluorescence intensity (a.u.)
5,AGTTATCATGTTTCTGTTGTTATCTCTTTATCCTTATCTCCGGAGTCACCTAGTGCAG,12500 fluorescence intensity (a.u.)
6,CTTCGCAGCCGCCGCCGGCGGGGAGGGGAGGGCTCCGCGGCGGAGTCACCTAGTGCAG,8600 fluorescence intensity (a.u.)
7,GTTTGGCTGTTTATTTCTTAGTATTAAACTCTGGACATATCGGAGTCACCTAGTGCAG,8910 fluorescence intensity (a.u.)
8,CCTGTTTTAGCTAGCCTTTGTCATATACCAAAACCACACCCGGAGTCACCTAGTGCAG,8150 fluorescence intensity (a.u.)
9,CATGTTGCGCATATTTGATCTGCTCATGTTTTACTGCTTACGGAGTCACCTAGTGCAG,8210 fluorescence intensity (a.u.)
10,GCCAATGCCTCGCTTCGTCGCCTGCGGCTTCTGCGACCTCCGGAGTCACCTAGTGCAG,9630 fluorescence intensity (a.u.)
11,ATACTTCAAATATGTATCCGTATATCCGATGTGACACGCCCGGAGTCACCTAGTGCAG,8450 fluorescence intensity (a.u.)
12,AAATCATCCTTGGGCCCACTTAATATGCCATATGCCTATTCGGAGTCACCTAGTGCAG,10100 fluorescence intensity (a.u.)
13,TCTCTGCTTTCCGTCGCTTAACACAGTTAACACCAACGCACGGAGTCACCTAGTGCAG,12700 fluorescence intensity (a.u.)
14,TCTACCTTTTTTCGCTTTGAGTGTTTCTACTCTGCTGCTACGGAGTCACCTAGTGCAG,11600 fluorescence intensity (a.u.)
15,ACCATCAAGTTCTGCTTTTCTTCCCCATGTTTTTTTGCCCCGGAGTCACCTAGTGCAG,10700 fluorescence intensity (a.u.)
16,AAGCTAGACCACGTAACTTCACCTATTGCAACACATATATCGGAGTCACCTAGTGCAG,9970 fluorescence intensity (a.u.)
17,CGATCGCAATTTATACTTCATGGTCAAATATCTGTTACGTCGGAGTCACCTAGTGCAG,8280 fluorescence intensity (a.u.)
18,TCCGTTTGTTCGTATTATAACTTTGTGTTTGTTATTGGGGCGGAGTCACCTAGTGCAG,11400 fluorescence intensity (a.u.)
19,AAACACCACTAGTCCATACTTAAATTTAATGTTGCTTATCCGGAGTCACCTAGTGCAG,10100 fluorescence intensity (a.u.)
20,GCTTCCAGTCCAGCCCGCTCGCCGTCTCGCCATTTTGACCCGGAGTCACCTAGTGCAG,10700 fluorescence intensity (a.u.)
21,ACCGACTTTAATCACCAGCCCATCGTTAGCTAGCCAAAATCGGAGTCACCTAGTGCAG,10100 fluorescence intensity (a.u.)
